The list shows a part of the results.
Tests used:
Assay in all cases: log2 fold change, soluble protein after heating vs DMSO (PISA); higher = thermal stabilisation; K562 lysate, 10 uM; active = over 0.2 and 3.5 SD of the protein, either way, in both replicates (recomputed)
[1] = compound: C1=CC=C(C=C1)[C@H](COC2=CC3=C(C=C2)NC(=O)N3)NC(=O)C4=CC=CN(C4=O)CC5=CC(=C(C=C5)F)F
Method in brief: (§1)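 Thermal stability, expressed as log-two fold change relative to solvent controls, is given from duplicates. Crude K562 extract in PBS pH 7.4 with 1 mM MgCl2, at 1 mg/mL protein, was treated with 10 μM compound for 30 min and heated in aliquots for 3 min across 48°C-58°C. After pooling, adjustment to 0.5% NP-40 at 4°C and centrifugation at 21,000xg for 90 min, supernatant protein was measured by TMTpro 16plex LC-MS/MS with channel sums equalised.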

Chains of the proteins cited; added tags and fusions are not shown. Lines headed by an entry give the natural chain unless they say otherwise; changes in a name come on top.
UniProt P21980: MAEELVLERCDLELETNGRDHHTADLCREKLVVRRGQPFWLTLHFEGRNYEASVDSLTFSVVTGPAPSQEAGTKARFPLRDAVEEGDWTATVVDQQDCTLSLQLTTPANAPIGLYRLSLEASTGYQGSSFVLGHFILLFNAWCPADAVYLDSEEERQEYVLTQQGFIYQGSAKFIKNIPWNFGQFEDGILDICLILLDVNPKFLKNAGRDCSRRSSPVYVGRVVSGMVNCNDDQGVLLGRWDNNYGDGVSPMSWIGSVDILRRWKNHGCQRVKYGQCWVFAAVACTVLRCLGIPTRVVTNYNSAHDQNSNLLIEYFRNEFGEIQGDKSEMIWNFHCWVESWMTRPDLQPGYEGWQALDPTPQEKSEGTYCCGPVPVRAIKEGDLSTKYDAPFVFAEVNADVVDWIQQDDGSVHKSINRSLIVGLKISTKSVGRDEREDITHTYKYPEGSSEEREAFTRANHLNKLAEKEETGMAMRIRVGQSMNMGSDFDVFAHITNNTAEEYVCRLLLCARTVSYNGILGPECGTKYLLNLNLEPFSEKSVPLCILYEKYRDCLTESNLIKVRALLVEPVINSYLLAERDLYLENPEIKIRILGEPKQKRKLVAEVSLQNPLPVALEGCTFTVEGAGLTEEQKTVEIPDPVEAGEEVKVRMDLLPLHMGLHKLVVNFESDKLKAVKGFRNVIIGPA
UniProt Q9BVC6: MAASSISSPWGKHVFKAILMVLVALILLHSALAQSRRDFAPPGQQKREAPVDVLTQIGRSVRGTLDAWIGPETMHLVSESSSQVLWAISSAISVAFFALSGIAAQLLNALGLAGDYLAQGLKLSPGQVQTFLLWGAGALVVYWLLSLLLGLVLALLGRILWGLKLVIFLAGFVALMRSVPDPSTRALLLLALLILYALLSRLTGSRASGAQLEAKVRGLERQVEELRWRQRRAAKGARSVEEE
UniProt Q15363: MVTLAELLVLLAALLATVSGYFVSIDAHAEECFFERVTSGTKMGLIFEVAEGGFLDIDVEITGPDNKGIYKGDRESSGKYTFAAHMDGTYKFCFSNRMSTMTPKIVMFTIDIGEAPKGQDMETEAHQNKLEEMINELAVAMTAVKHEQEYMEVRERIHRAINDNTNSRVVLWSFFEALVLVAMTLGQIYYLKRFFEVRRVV
UniProt Q8WUY1: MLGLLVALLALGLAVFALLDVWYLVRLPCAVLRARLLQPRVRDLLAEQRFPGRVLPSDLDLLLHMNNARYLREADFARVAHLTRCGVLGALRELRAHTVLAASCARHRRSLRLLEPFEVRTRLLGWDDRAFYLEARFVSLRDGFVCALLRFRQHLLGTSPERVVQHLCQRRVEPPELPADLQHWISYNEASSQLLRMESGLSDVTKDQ
UniProt Q9H0V1: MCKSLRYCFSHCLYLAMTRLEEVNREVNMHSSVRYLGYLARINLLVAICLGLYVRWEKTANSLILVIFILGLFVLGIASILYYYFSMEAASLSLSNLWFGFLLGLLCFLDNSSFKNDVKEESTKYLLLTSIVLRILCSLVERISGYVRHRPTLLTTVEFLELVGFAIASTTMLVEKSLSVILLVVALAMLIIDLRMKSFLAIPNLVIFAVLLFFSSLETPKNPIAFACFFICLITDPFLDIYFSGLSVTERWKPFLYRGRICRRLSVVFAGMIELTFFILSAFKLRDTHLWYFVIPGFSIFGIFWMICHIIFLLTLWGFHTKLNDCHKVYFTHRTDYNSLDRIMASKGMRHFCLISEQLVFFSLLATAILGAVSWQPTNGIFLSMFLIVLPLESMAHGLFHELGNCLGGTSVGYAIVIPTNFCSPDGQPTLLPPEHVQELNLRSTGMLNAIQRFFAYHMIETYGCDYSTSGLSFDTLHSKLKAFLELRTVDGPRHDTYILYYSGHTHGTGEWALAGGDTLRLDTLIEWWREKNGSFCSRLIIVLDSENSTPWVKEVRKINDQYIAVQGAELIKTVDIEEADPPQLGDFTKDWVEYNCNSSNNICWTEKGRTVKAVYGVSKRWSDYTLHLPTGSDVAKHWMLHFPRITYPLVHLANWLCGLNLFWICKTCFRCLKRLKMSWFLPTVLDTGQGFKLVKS
UniProt Q6UWJ1: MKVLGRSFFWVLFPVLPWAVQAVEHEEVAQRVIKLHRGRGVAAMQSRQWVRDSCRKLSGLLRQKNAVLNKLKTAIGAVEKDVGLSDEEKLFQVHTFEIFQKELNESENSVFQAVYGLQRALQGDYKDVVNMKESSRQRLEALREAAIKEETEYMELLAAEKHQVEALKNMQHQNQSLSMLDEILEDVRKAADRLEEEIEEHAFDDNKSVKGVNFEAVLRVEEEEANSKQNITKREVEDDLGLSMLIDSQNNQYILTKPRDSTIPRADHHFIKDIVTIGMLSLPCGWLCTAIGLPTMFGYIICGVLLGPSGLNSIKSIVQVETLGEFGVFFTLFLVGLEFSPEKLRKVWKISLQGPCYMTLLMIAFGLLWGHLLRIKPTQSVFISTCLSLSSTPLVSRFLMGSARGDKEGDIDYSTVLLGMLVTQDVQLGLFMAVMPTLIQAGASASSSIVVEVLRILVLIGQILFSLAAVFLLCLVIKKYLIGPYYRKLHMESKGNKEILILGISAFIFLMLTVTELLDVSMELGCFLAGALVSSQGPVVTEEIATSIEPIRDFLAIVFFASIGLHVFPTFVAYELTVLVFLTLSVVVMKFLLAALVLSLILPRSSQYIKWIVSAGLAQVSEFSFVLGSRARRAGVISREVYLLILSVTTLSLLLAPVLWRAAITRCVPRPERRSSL
UniProt Q9UM00: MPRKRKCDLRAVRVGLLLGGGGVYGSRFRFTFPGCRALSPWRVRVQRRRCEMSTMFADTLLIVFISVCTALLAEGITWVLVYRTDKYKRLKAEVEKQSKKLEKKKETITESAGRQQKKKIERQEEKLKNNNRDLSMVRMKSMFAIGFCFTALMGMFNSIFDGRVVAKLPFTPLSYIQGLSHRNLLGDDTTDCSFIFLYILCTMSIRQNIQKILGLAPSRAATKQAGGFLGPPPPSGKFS
UniProt Q99805: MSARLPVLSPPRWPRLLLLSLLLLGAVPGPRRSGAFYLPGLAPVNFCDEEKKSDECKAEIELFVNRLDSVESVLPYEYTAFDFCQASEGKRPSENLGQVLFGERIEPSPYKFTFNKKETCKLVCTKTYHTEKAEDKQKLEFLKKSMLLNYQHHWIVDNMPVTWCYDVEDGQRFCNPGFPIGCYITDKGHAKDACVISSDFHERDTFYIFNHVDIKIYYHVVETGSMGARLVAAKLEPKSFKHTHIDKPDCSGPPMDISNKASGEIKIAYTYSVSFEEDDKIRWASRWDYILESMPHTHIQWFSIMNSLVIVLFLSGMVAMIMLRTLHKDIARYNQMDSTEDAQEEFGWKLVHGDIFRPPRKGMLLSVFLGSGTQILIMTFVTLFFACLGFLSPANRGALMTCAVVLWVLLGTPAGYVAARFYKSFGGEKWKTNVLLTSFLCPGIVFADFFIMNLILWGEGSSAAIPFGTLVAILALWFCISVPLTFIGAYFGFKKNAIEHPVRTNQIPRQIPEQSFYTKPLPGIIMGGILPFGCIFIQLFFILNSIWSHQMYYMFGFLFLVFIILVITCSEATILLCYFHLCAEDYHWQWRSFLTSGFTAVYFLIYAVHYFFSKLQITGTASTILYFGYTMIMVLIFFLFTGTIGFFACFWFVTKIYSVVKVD
UniProt Q8WUH2: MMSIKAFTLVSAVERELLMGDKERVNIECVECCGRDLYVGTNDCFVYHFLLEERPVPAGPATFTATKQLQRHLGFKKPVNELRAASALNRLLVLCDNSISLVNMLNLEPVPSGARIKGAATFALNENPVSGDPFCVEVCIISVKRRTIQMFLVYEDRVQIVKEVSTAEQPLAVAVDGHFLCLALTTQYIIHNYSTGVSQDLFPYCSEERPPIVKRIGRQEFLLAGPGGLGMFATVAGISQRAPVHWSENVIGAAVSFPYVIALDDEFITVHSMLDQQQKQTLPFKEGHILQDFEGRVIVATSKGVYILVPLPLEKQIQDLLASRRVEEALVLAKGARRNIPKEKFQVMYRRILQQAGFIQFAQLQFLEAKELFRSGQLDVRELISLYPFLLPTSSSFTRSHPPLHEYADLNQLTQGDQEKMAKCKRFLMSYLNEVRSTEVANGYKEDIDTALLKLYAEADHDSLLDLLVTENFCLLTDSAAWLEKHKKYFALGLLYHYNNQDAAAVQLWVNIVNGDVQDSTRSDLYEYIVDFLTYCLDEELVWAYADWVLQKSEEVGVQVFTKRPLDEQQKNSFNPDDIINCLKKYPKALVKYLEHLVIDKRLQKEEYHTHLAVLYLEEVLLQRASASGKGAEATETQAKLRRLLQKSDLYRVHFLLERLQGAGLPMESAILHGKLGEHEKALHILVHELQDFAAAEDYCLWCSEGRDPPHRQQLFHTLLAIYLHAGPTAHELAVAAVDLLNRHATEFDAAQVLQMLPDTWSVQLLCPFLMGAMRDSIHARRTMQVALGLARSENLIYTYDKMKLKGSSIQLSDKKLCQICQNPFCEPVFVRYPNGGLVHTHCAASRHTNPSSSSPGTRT
UniProt O00142: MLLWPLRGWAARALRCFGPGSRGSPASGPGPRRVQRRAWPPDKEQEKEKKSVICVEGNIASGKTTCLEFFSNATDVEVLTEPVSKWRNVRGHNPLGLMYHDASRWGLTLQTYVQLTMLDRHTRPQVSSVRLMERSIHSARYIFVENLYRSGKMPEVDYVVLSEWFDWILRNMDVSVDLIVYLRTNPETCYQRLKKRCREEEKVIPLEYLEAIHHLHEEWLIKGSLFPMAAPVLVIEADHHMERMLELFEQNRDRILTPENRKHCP
UniProt Q9NXG2: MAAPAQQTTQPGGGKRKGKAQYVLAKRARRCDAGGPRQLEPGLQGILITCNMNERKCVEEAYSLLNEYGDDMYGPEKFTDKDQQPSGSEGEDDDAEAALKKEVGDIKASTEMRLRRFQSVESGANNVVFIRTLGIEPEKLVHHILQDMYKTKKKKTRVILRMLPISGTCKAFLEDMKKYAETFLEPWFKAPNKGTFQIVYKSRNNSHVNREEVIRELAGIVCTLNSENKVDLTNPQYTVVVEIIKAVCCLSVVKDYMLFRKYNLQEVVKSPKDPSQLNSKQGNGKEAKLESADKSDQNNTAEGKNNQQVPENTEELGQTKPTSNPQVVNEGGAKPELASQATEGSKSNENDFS

[2] = compound: CC1=C(SC2=C1C(=N[C@H](C3=NN=C(N32)C)CC(=O)N)C4=CC=C(C=C4)Cl)C
Method in brief: as §1

[3] = compound: CC1=C2C(=CC=C1)N=C(N(C2=O)C3=CC=CC=C3C)CN4C=NC5=C(N=CN=C54)N
Method in brief: as §1

[4] = compound: Cc1sc2c(c1C)C(c1ccc(Cl)cc1)=N[C@@H](CC(=O)OC(C)(C)C)c1nnc(C)n1-2
Method in brief: as §1

[5] = compound: c1ccc([C@@H]2C[C@H]2NC2CCNCC2)cc1
Method in brief: as §1

Measured: log2 fold change

TGM2 (UniProt P21980)
inactive: [1] 0.017 | [2] 0.006 | [3] 0.017 | [4] -0.017 | [5] -0.004

TMEM109 (UniProt Q9BVC6)
inactive: [1] 0.007 | [2] -0.023 | [3] -0.063 | [4] 0 | [5] -0.048

TMED2 (UniProt Q15363)
inactive: [1] -0.018 | [2] -0.001 | [3] 0.042 | [4] 0.016 | [5] 0.012

THEM6 (UniProt Q8WUY1)
inactive: [1] -0.01 | [2] -0.006 | [3] -0.014 | [4] 0.062 | [5] 0.008

TMEM168 (UniProt Q9H0V1)
inactive: [1] 0.002 | [2] 0.017 | [3] -0.011 | [4] -0.043 | [5] -0.04

TMCO3 (UniProt Q6UWJ1)
inactive: [1] -0.067 | [2] 0.102 | [3] -0.168 | [5] -0.005

TMCO1 (UniProt Q9UM00)
inactive: [1] -0.03 | [2] 0.022 | [3] 0.052 | [4] -0.003 | [5] 0.157

TM9SF2 (UniProt Q99805)
inactive: [1] -0.028 | [2] 0.008 | [3] 0.02 | [4] -0.021 | [5] -0.038

TGFBRAP1 (UniProt Q8WUH2)
inactive: [1] -0.035 | [2] 0.024 | [3] 0 | [4] 0.05 | [5] -0.014

TK2 isoform 6 (UniProt O00142)
inactive: [1] -0.007 | [2] 0.003 | [3] 0.059 | [4] -0.115 | [5] -0.143

THUMPD1 (UniProt Q9NXG2)
inactive: [1] 0.027 | [2] 0.005 | [3] 0.01 | [4] -0.033 | [5] 0.002

— the supplement of paper PMC10849652
